Experimental data as given in paper doi:10.1101/2023.02.01.526449.

Experiments:
[1] = molecular target: T1, V5-TurboID fused to the lysosomal transmembrane protein TMEM192 (UniProt Q8IY95); test: proximity labelling
T1 sequence: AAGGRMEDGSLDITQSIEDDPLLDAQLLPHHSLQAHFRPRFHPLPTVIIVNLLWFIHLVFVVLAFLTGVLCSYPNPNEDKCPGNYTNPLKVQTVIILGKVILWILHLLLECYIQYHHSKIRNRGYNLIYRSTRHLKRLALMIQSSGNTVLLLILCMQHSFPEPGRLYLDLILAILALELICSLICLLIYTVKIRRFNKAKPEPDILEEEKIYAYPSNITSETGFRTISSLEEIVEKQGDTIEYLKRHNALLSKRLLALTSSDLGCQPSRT

[2] = molecular target: T1, V5-TurboID fused to the lysosomal transmembrane protein TMEM192; test: proximity labelling; remark: listed apart in the source

B1: Pleckstrin Homology and RhoGEF Domain Containing G3 (protein, UniProt A1L390 1-1219)
chain: MPVSTSLHQDGSQERPVSLTSTTSSSGSSCDSRSAMEEPSSSEAPAKNGAGSLRSRHLPNSNNNSSSWLNVKGPLSPFNSRAAAGPAHHKLSYLGRVVREIVETERMYVQDLRSIVEDYLLKIIDTPGLLKPEQVSALFGNIENIYALNSQLLRDLDSCNSDPVAVASCFVERSQEFDIYTQYCNNYPNSVAALTECMRDKQQAKFFRDRQELLQHSLPLGSYLLKPVQRILKYHLLLQEIAKHFDEEEDGFEVVEDAIDTMTCVAWYINDMKRRHEHAVRLQEIQSLLINWKGPDLTTYGELVLEGTFRVHRVRNERTFFLFDKTLLITKKRGDHFVYKGNIPCSSLMLIESTRDSLCFTVTHYKHSKQQYSIQAKTVEEKRNWTHHIKRLILENHHATIPQKAKEAILEMDSYYPNRYRCSPERLKKAWSSQDEVSTNVRQGRRQSEPTKHLLRQLNEKARAAGMKGKGRRESESSRSSRRPSGRSPTSTEKRMSFESISSLPEVEPDPEAGSEQEVFSAVEGPSAEETPSDTESPEVLETQLDAHQGLLGMDPPGDMVDFVAAESTEDLKALSSEEEEEMGGAAQEPESLLPPSVLDQASVIAERFVSSFSRRSSVAQEDSKSSGFGSPRLVSRSSSVLSLEGSEKGLARHGSATDSLSCQLSPEVDISVGVATEDSPSVNGMEPPSPGCPVEPDRSSCKKKESALSTRDRLLLDKIKSYYENAEHHDAGFSVRRRESLSYIPKGLVRNSISRFNSLPRPDPEPVPPVGSKRQVGSRPTSWALFELPGPSQAVKGDPPPISDAEFRPSSEIVKIWEGMESSGGSPGKGPGQGQANGFDLHEPLFILEEHELGAITEESATASPESSSPTEGRSPAHLARELKELVKELSSSTQGELVAPLHPRIVQLSHVMDSHVSERVKNKVYQLARQYSLRIKSNKPVMARPPLQWEKVAPERDGKSPTVPCLQEEAGEPLGGKGKRKPVLSLFDYEQLMAQEHSPPKPSSAGEMSPQRFFFNPSAVSQRTTSPGGRPSARSPLSPTETFSWPDVRELCSKYASRDEARRAGGGRPRGPPVNRSHSVPENMVEPPLSGRVGRCRSLSTKRGRGGGEAAQSPGPLPQSKPDGGETLYVTADLTLEDNRRVIVMEKGPLPSPTAGLEESSGQGPSSPVALLGQVQDFQQSAECQPKEEGSRDPADPSQQGRVRNLREKFQALNSVG
[1]
  binding: no binding
[2]
  binding: no binding

Read-outs that look alike come from different tables or passages of the source. Results are given in words; binding and its absence hold for the method and conditions named. Binding seen in cells or lysates may run through a third protein. Here binding means that the protein was enriched with, or labelled near, the bait; the list need not be complete. No binding means not detected with the bait. Where a sequence is shown, tags or fusion partners need not be part of it.
